# Reference: the supplement of paper PMC8728848
# This is one part of the list.
# B1: Gal 12 (Homo sapiens), Q96DT0 (protein)
# chain: MSQPSGGRAPGTRIYSWSCPTVMSPGEKLDPIPDSFILQPPVFHPVVPYVTTIFGGLHAGKMVMLQGVVPLDAHRFQVDFQCGCSLCPRPDIAFHFNPRFHTTKPHVICNTLHGGRWQREARWPHLALRRGSSFLILFLFGNEEVKVSVNGQHFLHFRYRLPLSHVDTLGIFGDILVEAVGFLNINPFVEGSREYPAGHPFLLMSPRLEVPCSHALPQGLSPGQVIIVRGLVLQEPKHFTVSLRDQAAHAPVTLRASFADRTLAWISRWGQKKLISAPFLFYPQRFFEVLLLFQEGGLKLALNGQGLGATSMNQQALEQLRELRISGSVQLYCVHS
# Experiments:
# Experiment in all cases: glycan array binding signal (z-score within array); higher = stronger binding
# Conditions in all cases: glycan notation: IUPAC condensed, linker removed
# [1] = biological target: Neu5Ac(a2-3)Gal(b1-3)[Neu5Ac(a2-6)]GlcNAc(b1-3)[Fuc(a1-3)[Gal(b1-4)]GlcNAc(b1-6)]Gal(b1-4)Glc
# Method in brief: (§1)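 The Consortium for Functional Glycomics database supplied 3228 glycan arrays, of which those lacking an available protein sequence were dropped. The binding signal, a within-array Z-score, was averaged across arrays of the same protein sequence and across linkers. Negative scores can be read as non-binding.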
# [2] = biological target: Neu5Ac(a2-3)Gal(b1-3)]Neu5Ac(a2-3)Gal(b1-4)]GlcNAc
# Method in brief: as §1
# [3] = biological target: Neu5Ac(a2-3)Gal(b1-4)Glc
# Method in brief: as §1
# [4] = biological target: Neu5Ac(a2-3)Gal(b1-4)GlcNAc
# Method in brief: as §1
# [5] = biological target: Neu5Ac(a2-3)Gal(b1-4)GlcNAc(b1-2)Man
# Method in brief: as §1
# [6] = biological target: Neu5Ac(a2-3)Gal(b1-4)GlcNAc(b1-2)Man(a1-3)[GlcNAc(b1-2)Man(b1-4)GlcNAc(b1-2)Man(a1-6)]Man(b1-4)GlcNAc(b1-4)GlcNAc
# Method in brief: as §1
# [7] = biological target: Neu5Ac(a2-3)Gal(b1-4)GlcNAc(b1-2)Man(a1-3)[GlcNAc(b1-4)][Neu5Ac(a2-3)Gal(b1-4)GlcNAc(b1-2)Man(a1-6)]Man(b1-4)GlcNAc(b1-4)GlcNAc
# Method in brief: as §1
# [8] = biological target: Neu5Ac(a2-3)Gal(b1-4)GlcNAc(b1-2)Man(a1-3)[Neu5Ac(a2-3)Gal(b1-4)GlcNAc(b1-2)Man(a1-6)]Man(b1-4)GlcNAc(b1-4)GlcNAc
# Method in brief: as §1
# [9] = biological target: Neu5Ac(a2-3)Gal(b1-4)GlcNAc(b1-2)Man(a1-3)[Neu5Ac(a2-3)Gal(b1-4)GlcNAc(b1-2)Man(a1-6)]Man(b1-4)GlcNAc(b1-4)[Fuc(a1-6)]GlcNAc
# Method in brief: as §1
# [10] = biological target: Neu5Ac(a2-3)Gal(b1-4)GlcNAc(b1-2)Man(a1-3)[Neu5Ac(a2-6)Gal(b1-4)GlcNAc(b1-2)Man(a1-6)]Man(b1-4)GlcNAc(b1-4)GlcNAc
# Method in brief: as §1
# [11] = biological target: Neu5Ac(a2-3)Gal(b1-4)GlcNAc(b1-2)[Neu5Ac(a2-3)Gal(b1-4)GlcNAc(b1-4)]Man(a1-3)[GlcNAc(b1-4)][Neu5Ac(a2-3)Gal(b1-4)GlcNAc(b1-2)[Neu5Ac(a2-3)Gal(b1-4)GlcNAc(b1-6)]Man(a1-6)]Man(b1-4)GlcNAc(b1-4)GlcNAc
# Method in brief: as §1
# [12] = biological target: Neu5Ac(a2-3)Gal(b1-4)GlcNAc(b1-2)[Neu5Ac(a2-3)Gal(b1-4)GlcNAc(b1-4)]Man(a1-3)[GlcNAc(b1-4)][Neu5Ac(a2-3)Gal(b1-4)GlcNAc(b1-4)Man(a1-6)]Man(b1-4)GlcNAc(b1-4)GlcNAc
# Method in brief: as §1
# [13] = biological target: Neu5Ac(a2-3)Gal(b1-4)GlcNAc(b1-2)[Neu5Ac(a2-3)Gal(b1-4)GlcNAc(b1-6)]Man(a1-6)[Neu5Ac(a2-3)Gal(b1-4)GlcNAc(b1-2)Man(a1-3)]Man(b1-4)GlcNAc(b1-4)GlcNAc
# Method in brief: as §1
# [14] = biological target: Neu5Ac(a2-3)Gal(b1-4)GlcNAc(b1-2)[Neu5Ac(a2-3)Gal(b1-4)GlcNAc(b1-6)]Man(a1-6)[Neu5Ac(a2-3)Gal(b1-4)GlcNAc(b1-2)Man(a1-3)][GlcNAc(b1-4)]Man(b1-4)GlcNAc(b1-4)GlcNAc
# Method in brief: as §1
# [15] = biological target: Neu5Ac(a2-3)Gal(b1-4)GlcNAc(b1-3)Gal
# Method in brief: as §1
# [16] = biological target: Neu5Ac(a2-3)Gal(b1-4)GlcNAc(b1-3)Gal(b1-3)GlcNAc
# Method in brief: as §1
# [17] = biological target: Neu5Ac(a2-3)Gal(b1-4)GlcNAc(b1-3)Gal(b1-4)GlcNAc
# Method in brief: as §1
# [18] = biological target: Neu5Ac(a2-3)Gal(b1-4)GlcNAc(b1-3)Gal(b1-4)GlcNAc(b1-2)Man(a1-3)[Neu5Ac(a2-3)Gal(b1-4)GlcNAc(b1-3)Gal(b1-4)GlcNAc(b1-2)Man(a1-6)]Man(b1-4)GlcNAc(b1-4)GlcNAc
# Method in brief: as §1
# [19] = biological target: Neu5Ac(a2-3)Gal(b1-4)GlcNAc(b1-3)Gal(b1-4)GlcNAc(b1-3)Gal(b1-4)GlcNAc
# Method in brief: as §1
# [20] = biological target: Neu5Ac(a2-3)Gal(b1-4)GlcNAc(b1-3)Gal(b1-4)GlcNAc(b1-3)Gal(b1-4)GlcNAc(b1-2)Man(a1-3)[Neu5Ac(a2-3)Gal(b1-4)GlcNAc(b1-3)Gal(b1-4)GlcNAc(b1-3)Gal(b1-4)GlcNAc(b1-2)Man(a1-6)]GalNAc
# Method in brief: as §1
# [21] = biological target: Neu5Ac(a2-3)Gal(b1-4)GlcNAc(b1-3)Gal(b1-4)GlcNAc(b1-3)GalNAc
# Method in brief: as §1
# [22] = biological target: Neu5Ac(a2-3)Gal(b1-4)GlcNAc(b1-3)Gal(b1-4)GlcNAc(b1-3)[Neu5Ac(a2-3)Gal(b1-4)GlcNAc(b1-3)Gal(b1-4)GlcNAc(b1-6)]GalNAc
# Method in brief: as §1
# [23] = biological target: Neu5Ac(a2-3)Gal(b1-4)GlcNAc(b1-3)Gal(b1-4)GlcNAc(b1-6)[Gal(b1-3)]GalNAc
# Method in brief: as §1
# [24] = biological target: Neu5Ac(a2-3)Gal(b1-4)GlcNAc(b1-3)Gal(b1-4)[Fuc(a1-3)]GlcNAc
# Method in brief: as §1
# [25] = biological target: Neu5Ac(a2-3)Gal(b1-4)GlcNAc(b1-3)GalNAc
# Method in brief: as §1
# [26] = biological target: Neu5Ac(a2-3)Gal(b1-4)GlcNAc(b1-3)[Neu5Ac(a2-3)Gal(b1-4)GlcNAc(b1-6)]GalNAc
# Method in brief: as §1
# [27] = biological target: Neu5Ac(a2-3)Gal(b1-4)GlcNAc(b1-6)GalNAc
# Method in brief: as §1
# [28] = biological target: Neu5Ac(a2-3)Gal(b1-4)GlcNAc(b1-6)[Gal(b1-3)]GalNAc
# Method in brief: as §1
# [29] = biological target: Neu5Ac(a2-3)Gal(b1-4)GlcNAc(b1-6)[Neu5Ac(a2-3)Gal(b1-3)]GalNAc
# Method in brief: as §1
# [30] = biological target: Neu5Ac(a2-3)Gal(b1-4)GlcNAc6S
# Method in brief: as §1
# [31] = biological target: Neu5Ac(a2-3)Gal(b1-4)[Fuc(a1-3)]GlcNAc
# Method in brief: as §1
# [32] = biological target: Neu5Ac(a2-3)Gal(b1-4)[Fuc(a1-3)]GlcNAc(b1-2)Man
# Method in brief: as §1
# [33] = biological target: Neu5Ac(a2-3)Gal(b1-4)[Fuc(a1-3)]GlcNAc(b1-3)Gal
# Method in brief: as §1
# [34] = biological target: Neu5Ac(a2-3)Gal(b1-4)[Fuc(a1-3)]GlcNAc(b1-3)Gal(b1-4)GlcNAc
# Method in brief: as §1
# [35] = biological target: Neu5Ac(a2-3)Gal(b1-4)[Fuc(a1-3)]GlcNAc(b1-3)Gal(b1-4)[Fuc(a1-3)]GlcNAc(b1-3)Gal(b1-4)[Fuc(a1-3)]GlcNAc
# Method in brief: as §1
# [36] = biological target: Neu5Ac(a2-3)Gal(b1-4)[Fuc(a1-3)]GlcNAc(b1-3)GalNAc
# Method in brief: as §1
# [37] = biological target: Neu5Ac(a2-3)Gal(b1-4)[Fuc(a1-3)]GlcNAc(b1-6)[Gal(b1-3)]GalNAc
# Method in brief: as §1
# [38] = biological target: Neu5Ac(a2-3)Gal(b1-4)[Fuc(a1-3)]GlcNAc(b1-6)[Neu5Ac(a2-3)Gal(b1-3)]GalNAc
# Method in brief: as §1
binder,measurement,setting,value
B1,glycan array binding signal (z-score),[1],-0.207
same,glycan array binding signal (z-score),[2],0.199
same,glycan array binding signal (z-score),[3],-0.562
same,glycan array binding signal (z-score),[4],-0.736
same,glycan array binding signal (z-score),[5],0.109
same,glycan array binding signal (z-score),[6],-0.006
same,glycan array binding signal (z-score),[7],1.22
same,glycan array binding signal (z-score),[8],2.18
same,glycan array binding signal (z-score),[9],-0.456
same,glycan array binding signal (z-score),[10],-0.383
same,glycan array binding signal (z-score),[11],0.22
same,glycan array binding signal (z-score),[12],-0.135
same,glycan array binding signal (z-score),[13],2.06
same,glycan array binding signal (z-score),[14],0.844
same,glycan array binding signal (z-score),[15],-0.004
same,glycan array binding signal (z-score),[16],-0.851
same,glycan array binding signal (z-score),[17],0.104
same,glycan array binding signal (z-score),[18],0.453
same,glycan array binding signal (z-score),[19],0.56
same,glycan array binding signal (z-score),[20],0.17
same,glycan array binding signal (z-score),[21],0.603
same,glycan array binding signal (z-score),[22],-1.66
same,glycan array binding signal (z-score),[23],-0.81
same,glycan array binding signal (z-score),[24],-0.295
same,glycan array binding signal (z-score),[25],-0.366
same,glycan array binding signal (z-score),[26],-0.111
same,glycan array binding signal (z-score),[27],0.429
same,glycan array binding signal (z-score),[28],-0.558
same,glycan array binding signal (z-score),[29],-0.021
same,glycan array binding signal (z-score),[30],0.913
same,glycan array binding signal (z-score),[31],-0.335
same,glycan array binding signal (z-score),[32],-1.63
same,glycan array binding signal (z-score),[33],-0.314
same,glycan array binding signal (z-score),[34],0.703
same,glycan array binding signal (z-score),[35],0.293
same,glycan array binding signal (z-score),[36],2.37
same,glycan array binding signal (z-score),[37],1.12
same,glycan array binding signal (z-score),[38],1.82

# Two records drawn at random from the list so far, as already listed:
binder,measurement,setting,value
B1,glycan array binding signal (z-score),[22],-1.66
same,glycan array binding signal (z-score),[26],-0.111
